Assay results: US9951373B2, “Oplophorus-derived luciferases, novel coelenterazine substrates, and methods of use” (Promega Corporation, priority 2010, dated 2018)

test: Auto-luminescence characterization of coelenterazines; details: 20 μM substrate on HEK293 cells, no luciferase; normalized to native coelenterazine

Molecule	Autolum (norm to coel)
O=c1c(Cc2cccs2)nc2c(Cc3ccccc3)[nH]c(-c3ccc(O)cc3)cn1-2 [PBI-4002]	0.6
O=c1c(Cc2ccccc2)nc2c(Cc3ccccc3)[nH]c(-c3ccccc3)cn1-2 [coelenterazine-hh, bisdeoxycoelenterazine, reference compound]	0.3
CC(C)c1[nH]c(-c2ccccc2)cn2c(=O)c(Cc3ccc(O)cc3)nc1-2 [PBI-3841]	0.1
Oc1ccc(Cc2nc3c(Cc4ccccc4)nc(-c4ccc(O)cc4)cn3c2O)cc1 [native coelenterazine, coelenterazine]	1
O=c1c(Cc2ccco2)nc2c(Cc3ccccc3)[nH]c(-c3ccc(O)cc3)cn1-2 [PBI-3945]	0.5
O=c1c(Cc2ccco2)nc2c(Cc3ccccc3)[nH]c(-c3ccccc3)cn1-2 [PBI-3939, 8-benzyl-2-(furan-2-ylmethyl)-6-phenylimidazo[1,2-a]pyrazin-3(7H)-one]	0.2
O=c1c(Cc2ccc(O)cc2)nc2c(Cc3ccccc3)[nH]c(-c3ccccc3)cn1-2 [PBI-3840, 8-benzyl-2-(4-hydroxybenzyl)-6-phenylimidazo[1,2-a]pyrazin-3(7H)-one]	0.2
Cc1nc2c(Cc3ccccc3)[nH]c(-c3ccccc3)cn-2c1=O [PBI-3932, 8-benzyl-2-methyl-6-phenylimidazo[1,2-a]pyrazin-3(7H)-one]	0.1
coelenterazine-h [reference compound]	1.2
Cc1[nH]c(-c2ccccc2)cn2c(=O)c(Cc3ccc(O)cc3)nc1-2 [PBI-3896, 2-(4-hydroxybenzyl)-8-methyl-6-phenylimidazo[1,2-a]pyrazin-3(7H)-one]	0.1
O=c1c(Cc2ccc(O)cc2)nc2c(C3CC3)[nH]c(-c3ccccc3)cn1-2 [PBI-3897, 8-cyclopropyl-2-(4-hydroxybenzyl)-6-phenylimidazo[1,2-a]pyrazin-3(7H)-one]	0.1
CCc1nc2c(Cc3ccccc3)[nH]c(-c3ccccc3)cn-2c1=O [PBI-3925, 8-benzyl-2-ethyl-6-phenylimidazo[1,2-a]pyrazin-3(7H)-one]	0.2
O=c1c(Cc2ccc(O)cc2)nc2c[nH]c(-c3ccccc3)cn1-2 [PBI-3894]	0.2
O=c1c(Cc2cccs2)nc2c(Cc3ccccc3)[nH]c(-c3ccccc3)cn1-2 [PBI-3889, 8-benzyl-6-phenyl-2-(thiophen-2-ylmethyl)imidazo[1,2-a]pyrazin-3(7H)-one]	0.2
